In all, about 59,000 compounds went through this assay and about 35 (0.06%) were called active. Inconclusive results, whose numbers are uncertain, are shown with a selection of clear calls. No stated cut-off is given here; in the data, active means max dye-equivalent concentration above about 10 nM; inconclusive means between about 1.1 nM and that limit; inactive means weaker than that.
assay: qHTS Assay for Spectroscopic Profiling in Texas Red Spectral Region; settings: Compound fluorescence, Texas Red channel, 547/618 nm; stronger effect = higher value
In short: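 Spectral interference profiling: each compound concentration's relative fluorescence, read with a 547 nm excitation and 618 nm emission filter pair, was normalized to a per-plate Texas Red standard curve.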

SMILES | max dye-equivalent concentration
O=C(O)c1ccc(/C=N\N=C2c3ccccc3-c3ccccc32)cc1 | inactive
COc1ccccc1NC(=O)c1cc(Sc2nncn2C)nc2ccccc12 | inconclusive: 1.2 nM
COc1ccc(CCNC(=O)CCCCn2c(=O)[nH]c3ccccc3c2=O)cc1OC | inconclusive: 1.5 nM
CCCCOn1c(C)c(C(=O)OCC)c2c3no[n+]([O-])c3ccc21 | inconclusive: 1.2 nM
COCc1cc(=O)n2[nH]c(C)cc2n1 | inconclusive: 2.5 nM
OC[C@@H]1NC[C@@H](O)[C@@H](O)[C@H]1O | inactive
Fc1ccc(-c2nc3n(n2)Cc2ccccc2-3)cc1 | inconclusive: 1.2 nM
COc1ccc(CNc2ncncc2-c2c(C)noc2C)c(OC)c1 | inactive
O=C(O)c1ccc(COc2ccc(CO)cc2Cl)cc1 | inconclusive: 2.2 nM
Cc1ccc2nc(-c3ccc(SCC(=O)Nc4cc(C)on4)nc3)[nH]c2c1 | inactive
CC(C)(C)c1cc(/C=C(\C#N)C(N)=S)cc(C(C)(C)C)c1O | inactive
COc1ccccc1N=c1oc2cc(O)ccc2cc1C(N)=O | inconclusive: 1.2 nM
CS(=O)(=O)N(Cc1ccc(F)cc1)Cc1nc2ccccc2c(=O)[nH]1 | inconclusive: 1.1 nM
CCCS(=O)(=O)N1CCCC(C(=O)NCc2ccc3c(c2)OCO3)C1 (centres undefined) | inconclusive: 1.1 nM
Cc1ccc(C(=O)CSc2nnc(COc3cccc4cccnc34)o2)cc1 | inconclusive: 1.6 nM
CN1CCN(C2=C(Cl)C(=O)N(c3ccc(Cl)cc3)C2=O)CC1 | inconclusive: 2.5 nM
COc1ccc2nc(NC(=O)CN(c3ccc(C)cc3)S(=O)(=O)c3c(C)nn(C)c3C)sc2c1 | inconclusive: 1.1 nM
CCN1C(=O)/C(=C/N2CC(C)CC(C)C2)SC1=S (centres undefined) | inconclusive: 1.8 nM
C=CCNC(=O)c1cc(=O)c2ccccc2o1 | inconclusive: 1.6 nM
COc1cc(OC)cc(-c2nc(-c3cc4cc(C)ccc4nc3OC)no2)c1 | inconclusive: 1.5 nM
CCOC(=O)c1sc(NC(=O)c2cc(S(=O)(=O)N3CCOCC3)ccc2C)nc1C | inconclusive: 1.4 nM

SMILES | max dye-equivalent concentration
Cc1ccc(C(=O)OCC(=O)N2CC(=O)Nc3ccccc32)s1 | inconclusive: 1.8 nM
O=c1cc(CO)oc(CN2CCC(Cc3ccccc3)CC2)c1O | inconclusive: 1.2 nM
C[C@H](O)C(=O)C1=Nc2c(nc(N)[nH]c2=O)NC1 | inconclusive: 1.5 nM
Cc1cc(NC(=O)CCC(=O)N(c2cccc(F)c2)C(C(=O)NC2CCCC2)c2ccncc2)no1 (centres undefined) | inconclusive: 1.6 nM
Cc1cc(C)n(-c2nncn2/N=C/c2ccccc2F)n1 | inconclusive: 1.1 nM
CCOC(=O)c1c(C)[nH]c(C(=O)NCc2ccccc2OC)c1C | inconclusive: 1.1 nM
COC(=O)C1C(c2ccccc2)C(C(=O)N2CCOCC2)C1c1ccccc1 (centres undefined) | inconclusive: 1.4 nM
O=C(O)C1C2C=CC(C3CC23)C1C(=O)NCCc1ccccc1 (centres undefined) | inconclusive: 1.2 nM
O=C(CN(Cc1ccco1)C(=O)CNS(=O)(=O)c1ccccc1)NCc1ccccc1 | inconclusive: 1.9 nM
CC[C@H](C)N(C)C(=O)c1cc2ccccc2c(-c2ccccc2Cl)n1 | inactive
Nc1c(S(=O)(=O)O)cc(Nc2cccc(S(N)(=O)=O)c2)c2c1C(=O)c1ccccc1C2=O | inconclusive: 1.1 nM
Cc1cc(-c2nnc(-c3cc4ccccc4oc3=O)o2)c(C)n1-c1ccccc1 | inactive
Cc1cccc(NC(=O)c2oc3c(c2C)C(=O)CC(C)(C)C3)n1 | inconclusive: 1.2 nM
Cc1ccc(NCc2nnc(SCC(=O)N3CCCCC3)n2CC2CCCO2)c(C)c1 (centres undefined) | inconclusive: 1.5 nM
CCCn1c(N2CCN(CC(=O)c3c[nH]c4ccccc34)CC2)nc2c1c(=O)[nH]c(=O)n2C | inconclusive: 1.8 nM
Cc1ccc(S(=O)(=O)N2CCCC(C(=O)NCC3COCCO3)C2)cc1 (centres undefined) | inconclusive: 2.1 nM
COCCNc1cc(C)nc2c3c(C)cc(C)nc3nn12 | inconclusive: 1.9 nM
COC(=O)C(NC(C)=O)(Nc1ccccn1)C(F)(F)F (centres undefined) | inconclusive: 1.2 nM
N#Cc1nc(Cc2ccccc2)oc1NCCN1CCOCC1 | inconclusive: 1.3 nM
COCCCNC(=O)CCC(=O)Nc1ccc2nc(N3CCOCC3)cc(C)c2c1 | inconclusive: 1.4 nM
CCOC(=O)c1sc(N(Cc2ccccc2)C(=O)CSc2nnc(C3CC3)n2N)nc1C | inconclusive: 1.3 nM

3 consecutive records from above, for reference:
SMILES | max dye-equivalent concentration
Cc1ccc(S(=O)(=O)N2CCCC(C(=O)NCC3COCCO3)C2)cc1 (centres undefined) | inconclusive: 2.1 nM
COCCNc1cc(C)nc2c3c(C)cc(C)nc3nn12 | inconclusive: 1.9 nM
COC(=O)C(NC(C)=O)(Nc1ccccn1)C(F)(F)F (centres undefined) | inconclusive: 1.2 nM

Next compounds follow:

SMILES | max dye-equivalent concentration
Cc1ccoc1C(=O)NCCCNC(=O)c1occc1C | inconclusive: 1.9 nM
Nc1c(C2=NCCO2)nnn1Cc1ccccc1 | inconclusive: 1.7 nM
Cc1cccc(C(=O)O)c1NC(=O)c1ccc(F)cc1 | inconclusive: 1.4 nM
N#Cc1ccc(CN2CCC3(CC2)CCN(C(=O)c2cc(C(F)(F)F)cc(C(F)(F)F)c2)CC3)cc1 | inactive
CCSCc1nnc(SCC(=O)c2ccc(OC)cc2)n1C | inconclusive: 1.3 nM
COc1ccccc1-n1nnnc1SCc1ccccc1 | inconclusive: 1.8 nM
CCC(=O)N1CCCc2cc(S(=O)(=O)N3CCC(N4CCCCC4)CC3)ccc21 | inconclusive: 1.4 nM
CN1C(=O)CC(C(=O)Nc2ccc(F)cc2)SC1=Nc1ccc2c(c1)OCO2 (centres undefined) | inconclusive: 1.4 nM
COc1ccc(-c2nc(CS(=O)(=O)CC(=O)NCCc3cc(OC)ccc3OC)c(C)o2)cc1 | inconclusive: 1.4 nM
CCCOc1ccccc1NC(=O)CC1Nc2ccccc2NC1=O (centres undefined) | inconclusive: 1.4 nM
O=C(Nc1ccc(Cl)c(Cl)c1)Nc1cc(C(=O)N2CCOCC2)ccc1N1CCCCC1 | inconclusive: 1.2 nM
CO[C@@H]1/C=C\O[C@]2(C)Oc3c(C)c(O)c4c(O)c(cc(O)c4c3C2=O)NC(=O)/C(C)=C\C=C/[C@H](C)[C@@H](O)[C@H](C)[C@H](O)[C@H](C)[C@H](OC(C)=O)[C@@H]1C | inactive
O=C(Nc1nnc(SCc2ccc(Cl)cc2)s1)c1ccco1 | inconclusive: 1.2 nM
CC1C=Cc2ccccc2N1C(=O)c1ccccc1 (centres undefined) | inconclusive: 1.1 nM
COc1cccc(Nc2ncc3nc(-c4cccs4)c(=O)n(C[C@H]4CCCO4)c3n2)c1 | inactive
NCCNS(=O)(=O)c1ccc(N)cc1 | inactive
Cc1cccc(-n2ncc3c(N4CCCC4)ncnc32)c1 | inconclusive: 1.5 nM
CCOC(=O)c1ccc(NC(=O)CCNc2c(N3CCCC3)c(=O)c2=O)cc1 | inconclusive: 1.1 nM
O=C(c1ccco1)N1CCN(S(=O)(=O)c2ccc3c(c2)CCN3C(=O)C2CCC2)CC1 | inconclusive: 1.4 nM
Cc1c(Cl)cccc1-n1ccnc1SCC(=O)O | inconclusive: 1.7 nM
N#Cc1nc(COc2ccc(F)cc2)oc1N1CCN(Cc2ccccc2)CC1 | inconclusive: 1.5 nM

SMILES | max dye-equivalent concentration
Cn1nnnc1SCC(=O)N1c2ccccc2Sc2ccc(Cl)cc21 | inconclusive: 1.4 nM
CCC(=O)N1CCN(c2ccc(Cl)cc2NC(=O)c2ccc3c(c2)OCCO3)CC1 | inconclusive: 1.7 nM
N#CC1=C(SCC(=O)NC23CC4CC(CC(C4)C2)C3)NC(=O)C(C#N)C12CCCCC2 (centres undefined) | inconclusive: 1.2 nM
COc1cccc(N2CCN(C(=O)CCn3c(=S)[nH]c4cc5c(cc4c3=O)OCO5)CC2)c1 | inconclusive: 1.8 nM
O=C(NCCCN1CCN(c2cccc(Cl)c2)CC1)c1cccc(N2CCCC2=O)c1 | inconclusive: 1.8 nM
O=C(CSC1CCCCC1)Nc1nccs1 | inconclusive: 1.5 nM
Cc1cc(NC(=O)CSc2nnc3c(C)cc4c(C)ccc(C)c4n23)no1 | inconclusive: 1.2 nM
Cc1noc(NS(=O)(=O)c2ccc(NC(=O)CCC3CCCCC3)cc2)c1C | inconclusive: 1.3 nM
CCOc1ccc(NC(=O)CSc2nnc(C3CC3)n2N)cc1 | inconclusive: 1.1 nM
CCOC(=O)CCN(Cc1cccs1)S(=O)(=O)c1ccc(F)cc1 | inconclusive: 1.3 nM
O=C(Cn1c(=O)n(-c2cccc(Cl)c2)c(=O)n1CC(=O)N1CCCCC1)N1CCCCC1 | inconclusive: 1.2 nM
Cc1ccc(S(=O)(=O)N2CCN(C(=O)C3COc4ccccc4O3)CC2)cc1C (centres undefined) | inconclusive: 1.3 nM
COCCn1c(C)cc(C(=O)COC(=O)c2c(C)nn(Cc3ccccc3)c2C)c1C | inconclusive: 1.5 nM
COc1ccc(C(=O)Cn2nnc(-c3ccccc3-n3cnnn3)n2)cc1 | inconclusive: 1.2 nM
CCOC(=O)c1cc(-c2ccc(C)o2)nn1CCC#N | inconclusive: 1.4 nM
Nc1ncnc2c1ncn2[C@H]1O[C@@H](CO)[C@@H](O)[C@H]1N | inactive
O=S1(=O)c2cccc3cccc(c23)N1Cc1ccc(-c2nnco2)cc1 | inconclusive: 1.1 nM
CC1C2C(c3ccccc3)N(C)C(=O)N(C)C2N(C)C(=O)N1C (centres undefined) | inactive
COc1ccc(CCNC(=O)CCNS(=O)(=O)c2ccc3c(c2)CCN3C(C)=O)cc1OC | inconclusive: 1.6 nM
O=C(CSc1nnc(-c2ccco2)o1)NC1CCCCCC1 | inconclusive: 3.2 nM
Cc1nn(-c2ccccc2)c2sc(C(=O)N(Cc3ccco3)C(C)C(=O)NC(C)(C)C)cc12 (centres undefined) | inactive
